Experimental data as given in patent US20240216513A1, “FATTY ACID-BIFUNCTIONAL DEGRADER CONJUGATES AND THEIR METHODS OF USE” (Novartis AG, priority 2021, published 2024).
For at least one compound, name, drawing or mass did not settle the structure.

Chains of the proteins cited; added tags and fusions are not shown.
UniProt Q06187, whole entry C481S: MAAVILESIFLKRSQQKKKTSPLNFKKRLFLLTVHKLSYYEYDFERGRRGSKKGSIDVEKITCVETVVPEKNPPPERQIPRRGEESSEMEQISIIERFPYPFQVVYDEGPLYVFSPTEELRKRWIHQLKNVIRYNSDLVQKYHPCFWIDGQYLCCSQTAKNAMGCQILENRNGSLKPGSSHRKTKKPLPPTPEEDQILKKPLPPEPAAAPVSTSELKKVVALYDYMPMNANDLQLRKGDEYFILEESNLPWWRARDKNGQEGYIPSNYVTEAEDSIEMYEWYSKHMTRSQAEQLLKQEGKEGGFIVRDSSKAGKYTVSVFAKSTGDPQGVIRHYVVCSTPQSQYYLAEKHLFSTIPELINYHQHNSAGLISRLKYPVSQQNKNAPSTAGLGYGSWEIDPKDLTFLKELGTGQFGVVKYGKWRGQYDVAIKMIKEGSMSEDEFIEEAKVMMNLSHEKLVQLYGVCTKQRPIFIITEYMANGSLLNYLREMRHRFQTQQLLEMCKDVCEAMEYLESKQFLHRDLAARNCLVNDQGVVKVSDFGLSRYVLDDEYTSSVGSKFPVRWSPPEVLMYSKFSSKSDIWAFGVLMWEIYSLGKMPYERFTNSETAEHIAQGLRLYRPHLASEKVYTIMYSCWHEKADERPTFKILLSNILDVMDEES

Target: T1, BTK C481S (Homo sapiens, UniProt Q06187, C481S)
T1 construct: endogenous in cells; host or cells: TMD8 BTK C481S mutant tumour xenografts in mice
Assay: PD screen in TMD8 BTK C481S mutant tumor-bearing mice, BTK levels and compound concentrations in blood and tumor
Format: in vivo, mouse
Conditions: i.v.; 50 umol/kg
Description: All animal studies were conducted in accordance with ethics and procedures covered by permit nos. BS-1975 issued by the Kantonales Veterinäramt Basel-Stadt and in strict adherence to guidelines of the Eidgenössisches Tierschutzgesetz and the Eidgenössische Tierschutzverordnung, Switzerland. All animals had access to food and water ad libitum and were identified with transponders. They were housed in a specific pathogen-free facility with a 12-h light/12-h dark cycle. For PD screen experiments in TMD8 BTK C481S mutant tumor-bearing mice, FAC was injected once. Animals were randomized into groups of 2 and tissue samples collected at day 0, 4, 7 and in some studies day 10 as well. Blood samples were collected and tumors were excised, weighed, frozen in liquid nitrogen and cryogenic dry pulverized with the CryoPrep™ system (model CP-02, Covaris). Concentrations of compounds in blood and tumors were determined by UPLC/MS-MS and BTK levels were analyzed by Meso Scale Discovery.

**Q.** For CCCCCCCCCCCN(C(=O)CCCCCCCCCC(=O)O)C(CCC(=O)NCCOCCOCCOCCOCCOCCOCCOCCOCCOCCOCCOCCOCCC(=O)NCc1ccc(CC(=O)OC(C)(C)c2ccc(C(=O)Nc3cc(F)cc(-c4ncnc5[nH]c(-c6ccc(CCN7CCC8(CC7)CCN(C(=O)c7ccc(OC)c(N9CCC(=O)NC9=O)c7)CC8)cc6)cc45)c3C)c(F)c2)cc1)C(=O)O (stereo not shown) [Example A23, 46-Carboxy-1-(4-(2-((2-(4-((3-(6-(4-(2-(9-(3-(2,4-dioxotetrahydropyrimidin-1(2H)-yl)-4-methoxybenzoyl)-3,9-diazaspiro[5.5]undecan-3-yl)ethyl)phenyl)-7H-pyrrolo[2,3-d]pyrimidin-4-yl)-5-fluoro-2-methylphenyl)carbamoyl)-3-fluorophenyl)propan-2-yl)oxy)-2-oxoethyl)phenyl)-3,43,48-trioxo-47-undecyl-6,9,12,15,18,21,24,27,30,33,36,39-dodecaoxa-2,42,47-triazaoctapentacontan-58-oic acid], which “Duration of BTK degradation in mouse ≥90%” value is on record?
**A.** 4 days
